Results deposited as PubChem BioAssay AID1259254 (NCATS, 2017).
This is a random part of about 59,000 reagents. Over the whole deposit, about 1,550 (2.6%) got an active call. 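G2 share is only a proxy for re-replication; each gene was hit by three separate siRNAs, and active genes were retested.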 Entries without a mark were called inactive. The numbers tell different reagents against one gene apart. Not all columns of the deposit are shown. No sequences are given here. The record does not give: the amount of reagent.

Test: 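Genome-wide screen for genes that prevent DNA re-replication in cancer cells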 (primary screen)
System: human HCT116 colorectal cancer cells
Reagents: single siRNA against human genes
Timing: 3 days
Measurement: 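Imaged Hoechst DNA stain sorts each cell into a cycle phase by DNA amount; per plate, G2 fraction set to 0% for non-targeting and 100% for GMNN siRNA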
Direction: G2 robust z-score and G2 cells, % of GMNN control: higher = more G2 cells, more excess DNA replication
Call rule: 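Active siRNAs have a G2 robust z of 5 or more median absolute deviations over the median, which in these data means about 38% or higher of GMNN control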

The first 8 entries, to show the layout:
| gene | reagent no. | G2 robust z-score | G2 cells, % of GMNN control |
| --- | --- | --- | --- |
| C1orf105 | 1 | 1.06 | 10.4 |
| C1orf105 | 2 | 0.394 | 5.74 |
| C1orf105 | 3 | 3.75 | 29.3 |
| ANKRD1 | 1 | 1 | 10 |
| ANKRD1 | 2 | 7.33 (active) | 54.5 |
| ANKRD1 | 3 | 0.121 | 3.82 |
| USP26 | 1 | 1.2 | 11.4 |
| USP26 | 2 | 1.77 | 15.4 |

The list itself, from the first entry:
| gene | reagent no. | G2 robust z-score | G2 cells, % of GMNN control |
| --- | --- | --- | --- |
| C1orf105 | 1 | 1.06 | 10.4 |
| C1orf105 | 2 | 0.394 | 5.74 |
| C1orf105 | 3 | 3.75 | 29.3 |
| ANKRD1 | 1 | 1 | 10 |
| ANKRD1 | 2 | 7.33 (active) | 54.5 |
| ANKRD1 | 3 | 0.121 | 3.82 |
| USP26 | 1 | 1.2 | 11.4 |
| USP26 | 2 | 1.77 | 15.4 |
| USP26 | 3 | -1.01 | -4.11 |
| PSMB6 | 1 | 0.897 | 9.28 |
| PSMB6 | 2 | 0.611 | 7.27 |
| PSMB6 | 3 | 2.37 | 19.6 |
| METTL4 | 1 | 1.42 | 13 |
| METTL4 | 2 | 0.407 | 5.83 |
| METTL4 | 3 | 1.61 | 14.3 |
| APOA1 | 1 | -0.331 | 0.642 |
| APOA1 | 2 | -0.695 | -1.92 |
| APOA1 | 3 | 2.46 | 20.3 |
| SNX10 | 1 | 7.17 (active) | 53.4 |
| SNX10 | 2 | 0.42 | 5.92 |
| SNX10 | 3 | -0.309 | 0.795 |
| TTC1 | 1 | -0.245 | 1.24 |
| TTC1 | 2 | -0.496 | -0.52 |
| TTC1 | 3 | -1.2 | -5.45 |
| POU4F1 | 1 | -0.991 | -4 |
| POU4F1 | 2 | -0.29 | 0.925 |
| POU4F1 | 3 | 0.87 | 9.09 |
| GEMIN7 | 1 | 0.835 | 8.84 |
| GEMIN7 | 2 | -0.539 | -0.826 |
| GEMIN7 | 3 | -0.545 | -0.87 |
| PAPOLB | 1 | -0.659 | -1.67 |
| PAPOLB | 2 | 1.51 | 13.6 |
| PAPOLB | 3 | -1.27 | -6 |
| SNAPC2 | 1 | -0.438 | -0.115 |
| SNAPC2 | 2 | -0.774 | -2.48 |
| SNAPC2 | 3 | -0.866 | -3.13 |
| ZFR | 1 | 0.00525 | 3 |
| ZFR | 2 | -0.183 | 1.68 |
| ZFR | 3 | -0.722 | -2.11 |
| TESPA1 | 1 | 0.273 | 4.89 |
| TESPA1 | 2 | 1.17 | 11.2 |
| TESPA1 | 3 | 3.9 | 30.4 |
| NPPA | 1 | 1.04 | 10.3 |
| NPPA | 2 | 2.48 | 20.4 |
| NPPA | 3 | -0.491 | -0.489 |
| NAP1L4 | 1 | -0.0203 | 2.82 |
| NAP1L4 | 2 | -1.23 | -5.67 |
| NAP1L4 | 3 | -0.811 | -2.74 |
| CLYBL | 1 | 1.41 | 12.9 |
| CLYBL | 2 | 0.648 | 7.53 |
| CLYBL | 3 | 0.511 | 6.56 |
| GSTT1 | 1 | -0.0211 | 2.82 |
| GSTT1 | 2 | -1.04 | -4.32 |
| GSTT1 | 3 | 0.417 | 5.9 |
| MSH2-OT1 | 1 | 2.04 | 17.3 |
| MSH2-OT1 | 2 | 0.0637 | 3.42 |
| MSH2-OT1 | 3 | -0.159 | 1.85 |
| NDC80 | 1 | 3.14 | 25.1 |
| NDC80 | 2 | 4.61 | 35.4 |
| NDC80 | 3 | 6.13 (active) | 46.1 |
| EP400P1 | 1 | -0.776 | -2.5 |
| EP400P1 | 2 | -0.639 | -1.53 |
| EP400P1 | 3 | -0.243 | 1.26 |
| SLC24A2 | 1 | 0.49 | 6.41 |
| SLC24A2 | 2 | 2.03 | 17.3 |
| SLC24A2 | 3 | -0.473 | -0.358 |
| HMGB2 | 1 | 1.14 | 11 |
| HMGB2 | 2 | 1.66 | 14.6 |
| HMGB2 | 3 | 2.03 | 17.3 |
